The list shows a part of the results. Single values are uncertain here, since repeats match poorly.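 HEK293T cells were given each compound shortly before transfection with a reporter in which red mCherry is followed by the SARS-CoV-2 frameshift element and then GFP in the −1 frame, so GFP appears only after frameshifting.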
test system: HEK293T; assay: percent viability (nuclei count) relative to control; higher = more viable cells; conditions: 10 µM; 24 h

Row | Structure (SMILES) | percent viability [%]
1 | CCC(=O)O[C@H](CC(=O)O)C[N+](C)(C)C | 169
2 | CSCC[C@H](N)C(=O)O [methionine] | 230
3 | CCCCC[C@H](O)/C=C/[C@@H]1[C@@H](C/C=C\CCCC(=O)O)[C@@H](O)C[C@H]1O [Dinoprost] | 253
4 | CC1=CC(=O)NS(=O)(=O)O1 [acesulfame] | 142
5 | CC(=O)Oc1cccc2c1C(=O)c1c(OC(C)=O)cc(C(=O)O)cc1C2=O [diacerein] | 301
6 | CC(C)Cc1ccc([C@H](C)C(=O)O)cc1 [dexibuprofen] | 292
7 | CC(C)(C)NC[C@H](O)COc1ccccc1C1CCCC1 | 116
8 | Cn1cnc([N+](=O)[O-])c1Sc1ncnc2nc[nH]c12 | 126
9 | O=C1N(c2ccccc2)c2ccccc2C1(Cc1ccncc1)Cc1ccncc1 [linopirdine] | 196
10 | COc1cc(N)c(Cl)cc1C(=O)N[C@@H]1CCNC[C@@H]1OC [ticalopride] | 396
11 | CN1C(=O)CC(C)(c2ccccc2)C1=O (configuration not stated) [mesuximide] | 43.8
12 | CC(C)CN(C[C@@H](O)[C@H](Cc1ccccc1)NC(=O)O[C@H]1CCOC1)S(=O)(=O)c1ccc(N)cc1 [amprenavir] | 198
13 | N[C@@H]1CCCC[C@H]1N.O=C([O-])C(=O)[O-].[Pt+2] [Eloxatin] | 189
14 | Nc1nc(F)nc2c1ncn2[C@@H]1O[C@H](COP(=O)(O)O)[C@@H](O)[C@@H]1O | 275
15 | OB1OCc2cc(F)ccc21 [Tavaborole] | 303
16 | O=C(OCc1ccccc1)c1ccccc1 | 459
17 | C[C@@H]1CC(=O)NN=C1c1ccc(NN=C(C#N)C#N)cc1 [levosimendan] | 133

Some of the entries so far, with tabs.
Row	Structure (SMILES)	percent viability [%]
2	CSCC[C@H](N)C(=O)O [methionine]	230
3	CCCCC[C@H](O)/C=C/[C@@H]1[C@@H](C/C=C\CCCC(=O)O)[C@@H](O)C[C@H]1O [Dinoprost]	253
4	CC1=CC(=O)NS(=O)(=O)O1 [acesulfame]	142
5	CC(=O)Oc1cccc2c1C(=O)c1c(OC(C)=O)cc(C(=O)O)cc1C2=O [diacerein]	301
6	CC(C)Cc1ccc([C@H](C)C(=O)O)cc1 [dexibuprofen]	292
